Test results published in patent US8624037B2, “Imidazolidine-2,4-dione derivatives and use thereof as a medicament” (Ipsen Pharma S.A.S., priority 2009, dated 2014).
Some entries share one result that the patent states for a list of compounds.

Tested on: LNCaP cells
Assay: Pro- and/or anti-proliferative activity on LNCaP in medium depleted in steroids (WST-1)
Assay type: cell-based
Conditions: 144 h, 1 nM to 100,000 nM
Protocol: 2. Antiproliferative Activity on LNCaP in a Medium Depleted in Steroids:
The pro- and/or anti-proliferative activity of the compounds of the present invention is determined on LNCaP in medium depleted in steroids.
The LNCaP (ATCC, 1740) line originates from a carcinoma of the prostate expressing the androgen receptor, it is hormone-dependent.
The maintenance of the LNCaP line is carried out under the usual conditions in RPMI, 10% of foetal calf serum, 2 mM of glutamine, 100 U/ml of penicillin, 0.1 mg/ml of streptomycin and 0.01M HEPES, 1 mM sodium pyruvate, 40% of D-glucose.
For the study under conditions without steroids, 24 hours before the seeding the culture medium of the cells is eliminated. The cells are washed with PBS, then incubated in the presence of RPMI medium without phenol red, 10% of foetal calf serum without steroids (treatment with carbon-dextran beforehand), 2 mM of glutamine, 100 U/ml of penicillin, 0.1 mg/ml of streptomycin and 0.01M HEPES, 1 mM of sodium pyruvate, 40% of D-glucose. • Seeding the plates:
The LNCaP line is seeded at 20,000 cells/well in 90 μl of RPMI medium with 10% foetal calf serum depleted in steroids in 96-well plates coated with poly-D-lysine (Biocoat, Costar). • Treatment of the cells: 24 h after seeding, the cells are treated with 10 μl/well of compound diluted in the culture medium. The concentrations used are the following: 1 nM/10/30/100/300/1000/3000/10,000/100,000 nM. The cells are incubated for 144 h at 37° C., 5% CO2. • Reading: After incubation for 6 days, 10 μL of cell proliferation reagent WST-1 (Roche ref 1644807) is added to each well. After incubation for 2 to 4 hours at 37° C., 5% CO2, the absorbance at 450 nm is measured by spectrophotometry (Envision, Perkin Elmer). • Results: The experiments are carried out in duplicate and the best compounds are tested twice. […] 3. Measurement of Protein Expression of the Androgen Receptor

| Compound | agonist effect on the LNCaP cultured in a medium depleted in steroids |
| --- | --- |
| CC1(C)C(=O)N(c2ccc(C#N)c(C(F)(F)F)c2)C(=O)N1CCCCCN1C(=O)N(c2ccc(C#N)c(C(F)(F)F)c2)C(=O)C1(C)C [Example 5, 4,4′-[pentane-1,5-diylbis(4,4-dimethyl-2,5-dioxoimidazolidine-3,1-diyl)]bis[2-(trifluoromethyl)benzonitrile]] | do not have an agonist effect |
| CC(CCN1C(=O)N(c2ccc([N+](=O)[O-])c(C(F)(F)F)c2)C(=O)C1(C)C)CCN1C(=O)N(c2ccc([N+](=O)[O-])c(C(F)(F)F)c2)C(=O)C1(C)C [Example 6, 1,1′-(3-methylpentane-1,5-diyl)bis{5,5-dimethyl-3-[4-nitro-3-(trifluoromethyl)phenyl]imidazolidine-2,4-dione}] | do not have an agonist effect |
| CC1(C)C(=O)N(c2ccc([N+](=O)[O-])c(C(F)(F)F)c2)C(=O)N1CCCN1C(=O)N(c2ccc([N+](=O)[O-])c(C(F)(F)F)c2)C(=O)C1(C)C [Example 17, 1,1′-propane-1,3-diylbis{5,5-dimethyl-3-[4-nitro-3-(trifluoromethyl)-phenyl]imidazolidine-2,4-dione}] | do not have an agonist effect |
| CC1(C)C(=O)N(c2ccc(C#N)c(C(F)(F)F)c2)C(=O)N1C[C@@H]1C[C@H]1CN1C(=O)N(c2ccc(C#N)c(C(F)(F)F)c2)C(=O)C1(C)C [Example 23, 4,4′-{(1R,2R)-cyclopropane-1,2-diylbis[methanediyl(4,4-dimethyl-2,5-dioxoimidazolidine-3,1-diyl)]}bis[2-(trifluoromethyl)benzonitrile]] | do not have an agonist effect |
| CC1(C)C(=O)N(c2ccc([N+](=O)[O-])c(C(F)(F)F)c2)C(=O)N1CCCCCN1C(=O)N(c2ccc([N+](=O)[O-])c(C(F)(F)F)c2)C(=O)C1(C)C [Example 2, 1,1′-pentane-1,5-diylbis{5,5-dimethyl-3-[4-nitro-3-(trifluoromethyl)phenyl]imidazolidine-2,4-dione}] | do not have an agonist effect |
| CC1(C)C(=O)N(c2ccc(C#N)c(Cl)c2)C(=O)N1CCCCCN1C(=O)N(c2ccc(C#N)c(Cl)c2)C(=O)C1(C)C [Example 16, 4,4′-[pentane-1,5-diylbis(4,4-dimethyl-2,5-dioxoimidazolidine-3,1-diyl)]bis(2-chlorobenzonitrile)] | do not have an agonist effect |
| Cc1cc(N2C(=O)N(CCCCCN3C(=O)N(c4ccc([N+](=O)[O-])c(C)c4)C(=O)C3(C)C)C(C)(C)C2=O)ccc1[N+](=O)[O-] [Example 10, 1,1′-pentane-1,5-diylbis[5,5-dimethyl-3-(3-methyl-4-nitrophenyl)imidazolidine-2,4-dione]] | do not have an agonist effect |
| N#Cc1ccc(N2C(=O)N(CCCCCN3C(=O)N(c4ccc(C#N)c(C(F)(F)F)c4)C(=O)C34CC4)C3(CC3)C2=O)cc1C(F)(F)F [Example 20, 4,4′-[pentane-1,5-diylbis(5,7-dioxo-4,6-diazaspiro[2.4]heptane-4,6-diyl)]bis[2-(trifluoromethyl)benzonitrile]] | do not have an agonist effect |
| CN(CCN1C(=O)N(c2ccc([N+](=O)[O-])c(C(F)(F)F)c2)C(=O)C1(C)C)CCN1C(=O)N(c2ccc([N+](=O)[O-])c(C(F)(F)F)c2)C(=O)C1(C)C.Cl [Example 18, 2-{5,5-dimethyl-3-[4-nitro-3-(trifluoromethyl)phenyl]-2,4-dioxoimidazolidin-1-yl}-N-(2-{5,5-dimethyl-3-[4-nitro-3-(trifluoromethyl)-phenyl]-2,4-dioxoimidazolidin-1-yl}ethyl)-N-methylethanaminium chloride] | do not have an agonist effect |
| CC1(C)C(=O)N(c2ccc([N+](=O)[O-])cc2C(F)(F)F)C(=O)N1CCCCCN1C(=O)N(c2ccc([N+](=O)[O-])cc2C(F)(F)F)C(=O)C1(C)C [Example 11, 1,1′-pentane-1,5-diylbis{5,5-dimethyl-3-[4-nitro-2-(trifluoromethyl)phenyl]imidazolidine-2,4-dione}] | do not have an agonist effect |
| CC1(C)C(=O)N(c2ccc([N+](=O)[O-])c(C(F)(F)F)c2)C(=O)N1CCOCCN1C(=O)N(c2ccc([N+](=O)[O-])c(C(F)(F)F)c2)C(=O)C1(C)C [Example 7, 1,1′-(oxydiethane-2,1-diyl)bis{5,5-dimethyl-3-[4-nitro-3-(trifluoromethyl)-phenyl]imidazolidine-2,4-dione}] | do not have an agonist effect |
| CC1(C)C(=O)N(c2ccc([N+](=O)[O-])c(C(F)(F)F)c2)C(=O)N1CCCCCCCN1C(=O)N(c2ccc([N+](=O)[O-])c(C(F)(F)F)c2)C(=O)C1(C)C [Example 4, 1,1′-heptane-1,7-diylbis{5,5-dimethyl-3-[4-nitro-3-(trifluoromethyl)phenyl]imidazolidine-2,4-dione}] | do not have an agonist effect |
| CC1(C)C(=O)N(c2ccc(C#N)c(C(F)(F)F)c2)C(=O)N1C/C=C\CN1C(=O)N(c2ccc(C#N)c(C(F)(F)F)c2)C(=O)C1(C)C [Example 21, 4,4′-[(2Z)-but-2-ene-1,4-diylbis(4,4-dimethyl-2,5-dioxoimidazolidine-3,1-diyl)]bis[2-(trifluoromethyl)benzonitrile]] | do not have an agonist effect |
| COc1cc(N2C(=O)N(CCCCCN3C(=O)N(c4ccc([N+](=O)[O-])c(OC)c4)C(=O)C3(C)C)C(C)(C)C2=O)ccc1[N+](=O)[O-] [Example 13, 1,1′-pentane-1,5-diylbis[3-(3-methoxy-4-nitrophenyl)-5,5-dimethyl-imidazolidine-2,4-dione]] | do not have an agonist effect |
| CC1(C)C(=O)N(c2ccc([N+](=O)[O-])c(C(F)(F)F)c2)C(=O)N1CCCCN1C(=O)N(c2ccc([N+](=O)[O-])c(C(F)(F)F)c2)C(=O)C1(C)C [Example 1, 1,1′-butane-1,4-diylbis{5,5-dimethyl-3-[4-nitro-3-(trifluoromethyl)phenyl]imidazolidine-2,4-dione}] | do not have an agonist effect |
| COC(=O)Nc1ccc(N2C(=O)N(CCCCCN3C(=O)N(c4ccc(NC(=O)OC)c(C)c4)C(=O)C3(C)C)C(C)(C)C2=O)cc1C [Example 14, dimethyl{pentane-1,5-diylbis[(4,4-dimethyl-2,5-dioxoimidazolidine-3,1-diyl)(2-methyl-4,1-phenylene)]}biscarbamate] | do not have an agonist effect |
| CC1(C)C(=O)N(c2ccc([N+](=O)[O-])c(C(F)(F)F)c2)C(=O)N1CCCCCCN1C(=O)N(c2ccc([N+](=O)[O-])c(C(F)(F)F)c2)C(=O)C1(C)C [Example 3, 1,1′-hexane-1,6-diylbis{5,5-dimethyl-3-[4-nitro-3-(trifluoromethyl)phenyl]imidazolidine-2,4-dione}] | do not have an agonist effect |
